This passage reports binding results from PMC4225492.

Results are given in words; binding and its absence hold for the method and conditions named. For some assays here: In cells and extracts the contact can be indirect. Some results given as binding are weak or reduced against the parent protein; the word gives no strength. Sequences can lack the tags named with a protein.

Experiment [1] concerns the target T1, RETINOBLASTOMA-RELATED (RBR), BiFC fusion (Arabidopsis thaliana) (UniProt Q9LKZ3).
T1 sequence: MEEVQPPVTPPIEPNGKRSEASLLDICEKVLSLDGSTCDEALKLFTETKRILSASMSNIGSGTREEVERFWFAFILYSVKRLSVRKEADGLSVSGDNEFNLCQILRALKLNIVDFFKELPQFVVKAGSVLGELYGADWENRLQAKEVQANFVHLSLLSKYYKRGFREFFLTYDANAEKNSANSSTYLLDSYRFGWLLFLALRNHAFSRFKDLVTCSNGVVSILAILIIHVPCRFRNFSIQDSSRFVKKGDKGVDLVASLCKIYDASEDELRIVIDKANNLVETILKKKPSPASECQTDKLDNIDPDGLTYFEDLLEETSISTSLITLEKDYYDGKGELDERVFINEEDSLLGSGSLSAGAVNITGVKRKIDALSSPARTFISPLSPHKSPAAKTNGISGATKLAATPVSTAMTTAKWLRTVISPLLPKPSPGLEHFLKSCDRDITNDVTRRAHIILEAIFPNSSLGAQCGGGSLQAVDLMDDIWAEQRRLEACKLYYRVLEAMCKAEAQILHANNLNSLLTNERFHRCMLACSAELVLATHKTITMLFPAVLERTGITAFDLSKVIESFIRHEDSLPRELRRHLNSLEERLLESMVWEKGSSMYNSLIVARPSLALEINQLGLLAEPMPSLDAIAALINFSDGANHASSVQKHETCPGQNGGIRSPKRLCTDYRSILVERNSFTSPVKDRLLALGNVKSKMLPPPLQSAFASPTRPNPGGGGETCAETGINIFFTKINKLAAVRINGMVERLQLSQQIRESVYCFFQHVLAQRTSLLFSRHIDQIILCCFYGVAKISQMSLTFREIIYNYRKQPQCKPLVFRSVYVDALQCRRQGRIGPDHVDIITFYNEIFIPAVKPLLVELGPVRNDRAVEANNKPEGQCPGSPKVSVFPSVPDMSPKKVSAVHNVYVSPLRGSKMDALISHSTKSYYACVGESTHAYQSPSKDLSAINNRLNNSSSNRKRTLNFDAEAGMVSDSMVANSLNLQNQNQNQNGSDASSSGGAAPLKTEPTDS
The experiment is described as follows: split reporter; BiFC in Nicotiana benthamiana leaves; N or C terminal half of YFP fused to the C-terminus of each candidate; quantified as percentage of YFP-positive nuclei over total pavement cells in a field of view; three experiments.

Experiment [2] deals with T2, RETINOBLASTOMA-RELATED (RBR), yeast two-hybrid fusion (Arabidopsis thaliana) (UniProt Q9LKZ3).
T2 sequence: T1 sequence
The experiment is described as follows: two-hybrid; yeast strain AH109; vectors pGADT7 and pXDGATcy86; pairwise interactions tested by growth complementation on nutritional selective media.

B1: FAMA (wild type), BiFC fusion (protein, UniProt Q56YJ8 1-414)
chain: MDKDYSAPNFLGESSGGNDDNSSGMIDYMFNRNLQQQQKQSMPQQQQHQLSPSGFGATPFDKMNFSDVMQFADFGSKLALNQTRNQDDQETGIDPVYFLKFPVLNDKIEDHNQTQHLMPSHQTSQEGGECGGNIGNVFLEEKEDQDDDNDNNSVQLRFIGGEEEDRENKNVTKKEVKSKRKRARTSKTSEEVESQRMTHIAVERNRRKQMNEHLRVLRSLMPGSYVQRGDQASIIGGAIEFVRELEQLLQCLESQKRRRILGETGRDMTTTTTSSSSPITTVANQAQPLIITGNVTELEGGGGLREETAENKSCLADVEVKLLGFDAMIKILSRRRPGQLIKTIAALEDLHLSILHTNITTMEQTVLYSFNVKITSETRFTAEDIASSIQQIFSFIHANTNISGSSNLGNIVFT
Consider B1, for which the binding result in experiment [1] is recorded as “binds”.

B2: FAMA (wild type), yeast two-hybrid fusion (protein, UniProt Q56YJ8 1-414)
chain: B1 chain
In the case of B2, in experiment [2], the binding result is “binds”.
